Data as given in PubChem BioAssay AID1259308 (NCATS, 2017)

- Assay: 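Candidate targets for better recombinant protein yield in mammalian cells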 (primary screen)
- Cell system: human HEK293 embryonic kidney cells stably expressing firefly luciferase (HEK-CMV-Luc2-Hygro)
- Reagent: single siRNA against human genes, 0.8 pmol siRNA per well
- Timing: 72 h
- Read-out: 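Reporter luminescence and viable-cell signal on separate replicate plates, given as percent of non-targeting control and median/MAD z-scores, plus per-cell luciferase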
- Direction: total luciferase, z-score and total luciferase, % of control: higher = more reporter protein produced
- Active means: 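Active when the median/MAD z-score for overall luciferase is greater than 3; a gene was taken forward for validation with new siRNAs if at least two of its three siRNAs passed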
- Meaning of the calls: active = raised luciferase; inactive = no rise
In all, the deposit lists about 59,000 reagents; shown is a random part of them. Over the whole deposit, about 1,510 (2.6%) were called active. 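Calls use total luciferase alone and ignore viability, so some active siRNAs may act by altering cell number.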 Entries without a mark were called inactive. Reagents against one gene are numbered here. Further read-outs or replicates are left out here. Reagent sequences are not shown.

RGS6 (regulator of G protein signaling 6) #1
- total luciferase, z-score: 0.148
- total luciferase, % of control: 84.8

RGS6 (regulator of G protein signaling 6) #2
- total luciferase, z-score: 0.261
- total luciferase, % of control: 87.1

RGS6 (regulator of G protein signaling 6) #3
- total luciferase, z-score: 3.43 (active)
- total luciferase, % of control: 150

GLG1 (golgi glycoprotein 1) #1
- total luciferase, z-score: 2.71
- total luciferase, % of control: 136

GLG1 (golgi glycoprotein 1) #2
- total luciferase, z-score: 0.904
- total luciferase, % of control: 99.9

GLG1 (golgi glycoprotein 1) #3
- total luciferase, z-score: -1.51
- total luciferase, % of control: 51.8

CYP4F2 (cytochrome P450 family 4 subfamily F member 2) #1
- total luciferase, z-score: -1.46
- total luciferase, % of control: 52.8

CYP4F2 (cytochrome P450 family 4 subfamily F member 2) #2
- total luciferase, z-score: 0.124
- total luciferase, % of control: 84.4

CYP4F2 (cytochrome P450 family 4 subfamily F member 2) #3
- total luciferase, z-score: -1
- total luciferase, % of control: 61.9

RFPL4AL1 (ret finger protein like 4A like 1) #1
- total luciferase, z-score: 0.824
- total luciferase, % of control: 98.3

RFPL4AL1 (ret finger protein like 4A like 1) #2
- total luciferase, z-score: -0.602
- total luciferase, % of control: 69.9

RFPL4AL1 (ret finger protein like 4A like 1) #3
- total luciferase, z-score: -0.443
- total luciferase, % of control: 73.1

UBAC2 (UBA domain containing 2) #1
- total luciferase, z-score: -0.171
- total luciferase, % of control: 78.5

UBAC2 (UBA domain containing 2) #2
- total luciferase, z-score: 0.0208
- total luciferase, % of control: 82.3

UBAC2 (UBA domain containing 2) #3
- total luciferase, z-score: -0.209
- total luciferase, % of control: 77.7

RILPL1 (Rab interacting lysosomal protein like 1) #1
- total luciferase, z-score: 0.0875
- total luciferase, % of control: 83.6

RILPL1 (Rab interacting lysosomal protein like 1) #2
- total luciferase, z-score: -0.196
- total luciferase, % of control: 78

RILPL1 (Rab interacting lysosomal protein like 1) #3
- total luciferase, z-score: 1.54
- total luciferase, % of control: 113

DENND1A (DENN domain containing 1A) #1
- total luciferase, z-score: -0.17
- total luciferase, % of control: 78.5

DENND1A (DENN domain containing 1A) #2
- total luciferase, z-score: -0.187
- total luciferase, % of control: 78.2

DENND1A (DENN domain containing 1A) #3
- total luciferase, z-score: 0.547
- total luciferase, % of control: 92.8

LYPD5 (LY6/PLAUR domain containing 5) #1
- total luciferase, z-score: -0.0614
- total luciferase, % of control: 80.7

LYPD5 (LY6/PLAUR domain containing 5) #2
- total luciferase, z-score: -2.68
- total luciferase, % of control: 28.6

LYPD5 (LY6/PLAUR domain containing 5) #3
- total luciferase, z-score: 2.49
- total luciferase, % of control: 131

OLFM1 (olfactomedin 1) #1
- total luciferase, z-score: -1.06
- total luciferase, % of control: 60.9

OLFM1 (olfactomedin 1) #2
- total luciferase, z-score: 1.45
- total luciferase, % of control: 111

OLFM1 (olfactomedin 1) #3
- total luciferase, z-score: 1.3
- total luciferase, % of control: 108

TMX3 (thioredoxin related transmembrane protein 3) #1
- total luciferase, z-score: -0.274
- total luciferase, % of control: 76.4

TMX3 (thioredoxin related transmembrane protein 3) #2
- total luciferase, z-score: 0.71
- total luciferase, % of control: 96

TMX3 (thioredoxin related transmembrane protein 3) #3
- total luciferase, z-score: 0.0176
- total luciferase, % of control: 82.2

DAXX (death domain associated protein) #1
- total luciferase, z-score: -0.0965
- total luciferase, % of control: 80

DAXX (death domain associated protein) #2
- total luciferase, z-score: -0.38
- total luciferase, % of control: 74.3

DAXX (death domain associated protein) #3
- total luciferase, z-score: -0.785
- total luciferase, % of control: 66.3
